Source: article PMC9879961
Numbering of substitutions follows the chain as printed. Construct, isoform or probe ends are uncertain for at least one entry. For some assays here: Weaker means in comparison with the reference protein, sequence or condition of that experiment. For some assays here: At least one verdict was read from the data and is not stated in words by the source. For some assays here: Where a protein sequence is shown, tags need not be part of it.

Experiments:
Assay in all cases: EMSA
[1] = biological target: T1, CTRB-4A K3266A,K3267A,R3268A,R3269A (Homo sapiens) (UniProt P51587); conditions: strongly impaired, EMSA: 10 nM DNA, 35 mM Tris pH 7.5, 1 mM MgCl2, 1 mM DTT, 100 ug/ml BSA, 50 mM KCl, 25 C, 5 min, 8% native PAGE in TAE, recombinant protein, residues 3194-3418, protein details: N-term His6-thioredoxin-S (pET32a), C-term Flag
T1 sequence (looked up): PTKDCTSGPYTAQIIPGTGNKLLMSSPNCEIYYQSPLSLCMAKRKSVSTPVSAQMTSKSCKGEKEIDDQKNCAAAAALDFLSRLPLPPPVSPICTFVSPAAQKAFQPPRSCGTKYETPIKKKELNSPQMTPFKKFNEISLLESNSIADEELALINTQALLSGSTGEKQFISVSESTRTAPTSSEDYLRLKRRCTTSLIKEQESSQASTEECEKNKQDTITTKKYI

[2] = tested on: mini-BRCA2 (BRC4-DBD-CTRB) + DSS1; conditions: EMSA: 10 nM DNA, 35 mM Tris pH 7.5, 1 mM MgCl2, 1 mM DTT, 100 ug/ml BSA, 50 mM KCl, 25 C, 5 min, 8% native PAGE in TAE, recombinant protein, protein details: C-term His6-Flag,GST (pDEST20)
CTRB (Homo sapiens) = biological target: T2, CTRB (Homo sapiens) (UniProt P51587); conditions: EMSA: 10 nM DNA, 35 mM Tris pH 7.5, 1 mM MgCl2, 1 mM DTT, 100 ug/ml BSA, 50 mM KCl, 25 C, 5 min, 8% native PAGE in TAE, recombinant protein, residues 3194-3418, protein details: N-term His6-thioredoxin-S (pET32a), C-term Flag
T2 sequence (looked up): T1 sequence (looked up) with A73K, A74K, A75R, A76R

[3] = biological target: T3, CTRB-F/A F3298A (Homo sapiens) (UniProt P51587); conditions: no impact of mutation, EMSA: 10 nM DNA, 35 mM Tris pH 7.5, 1 mM MgCl2, 1 mM DTT, 100 ug/ml BSA, 50 mM KCl, 25 C, 5 min, 8% native PAGE in TAE, recombinant protein, residues 3194-3418, protein details: N-term His6-thioredoxin-S (pET32a), C-term Flag
T3 sequence (looked up): T1 sequence (looked up) with A73K, A74K, A75R, A76R, F105A

[4] = label: 5' 32P or Cy5, single-stranded DNA

Sequence | binding result ([1]; label: 5' 32P or Cy5 on H3) | binding result ([2]; dsDNA affinity similar to CTRB, label: 5' 32P or Cy5 on H3) | binding result (CTRB (Homo sapiens); affinity about the same as for ssDNA, label: 5' 32P or Cy5 on H3) | binding result ([3]; label: 5' 32P or Cy5 on H3) | binding result [1, 4] | binding result ([2]; higher ssDNA affinity than CTRB, label: 5' 32P or Cy5, single-stranded DNA) | binding result (CTRB (Homo sapiens); [4]) | binding result [3, 4]
TTGATAAGAGGTCATTTGAATTCATGGCTTAGAGCTTAATTGCTGAATCTGGTGCTGGGATCCAACATGTTTTAAATATG (double strand) [80bp dsDNA (Oligo-H3/H4)] | binds more weakly | binds | binds | binds |  |  |  | 
TTGATAAGAGGTCATTTGAATTCATGGCTTAGAGCTTAATTGCTGAATCTGGTGCTGGGATCCAACATGTTTTAAATATG [ssDNA (Oligo-H3, 80-mer)] |  |  |  |  | binds more weakly | binds | binds | binds
